Test: general procedure: Fmoc solid-phase peptide synthesis
Conditions: whole synthesis, analytical HPLC and mass spectrometry

Substance: H EAKSQGGSD-NH2
- final HPLC purity: >95%

Reference: patent publication US20110098223A1 (priority 2008, published 2011)
